# Measured values: PubChem BioAssay AID540256 (National Center for Advancing Translational Sciences (NCATS), 2011)
# Values joined by “and” are separate entries in the source; they are usually repeats but may differ in a detail not shown here. Identical values can stand only once. Out of some 300,000 compounds screened, about 3,700 (1.2%) were called active. The inconclusive results got no clear call from the source; some entries with a clear call stand among them for comparison. Calls follow the shape of the full dose curve; tested in HEK293 cells. Where the call is inconclusive, the potency comes from a doubtful curve fit.
# Assay: qHTS for Inhibitors of binding or entry into cells for Lassa Virus; also: nearly all actives have a fitted effect of over 50% in size
# Conditions: Lassa virus pseudotype entry inhibition, cell reporter; activity change, negative = inhibition: at 37.9 µM (top of the series) unless noted
# % is scaled to controls: 0 for no effect and ±100 for the full control effect; potency is read from the fitted curve at half-maximal effect.
Compound,"activity change, negative = inhibition",Potency
Cc1c(C(=O)O)cccc1-c1ccc(/C=N/Nc2ccc(Br)cc2)o1,inactive: 13.2%,
CCN(C(=O)c1ccco1)c1nnc(-c2cccnc2)s1,,"inconclusive: 5.62 µM [inhibitor, single point]"
Cc1c2cnn(-c3ccccc3)c(=O)c2c(C)n1CCCC(=O)NCCN1CCN(C)CC1,,"inconclusive: 11.2 µM [activator, single point]"
O=C(Nc1ccc(F)cc1Cl)c1cnc(N2CCOCC2)c2ccccc12,inactive: 6.61% [at 46.1 µM],
Fc1ccc(-c2cc3nc(-c4ccccc4)cc(N4CCN(CCN5CCOCC5)CC4)n3n2)cc1,inactive: -12.8%,
CC(Sc1nc2cc([N+](=O)[O-])ccc2n1-c1ccc(F)cc1)C(=O)NCc1ccc2c(c1)OCO2 (centres undefined),,"inconclusive: 7.08 µM [inhibitor, partial curve, poor fit]"
Cc1ccc(CN2C(=O)c3ccccc3NC2c2cc(Br)ccc2O)cc1 (centres undefined),,"inconclusive: 0.562 µM [inhibitor, full curve, poor fit]"
Cc1ccccc1OCC(=O)OCC(=O)NCc1ccco1,,"inconclusive: 0.708 µM [inhibitor, single point]"
Cc1cc(C(=O)N=Nc2c(O)n(C)c3ccccc23)c(C)o1,inactive: 4.14%,
COc1ccc(CCN(C)CCCC(C#N)(c2cc(OC)c(OC)c(OC)c2)C(C)C)cc1OC (centres undefined),,"inactive and inconclusive: 820 nM [inhibitor, partial curve, poor fit]"
COc1ccc(Cl)cc1S(=O)(=O)N1CCC(C(=O)NC2CCCC2)CC1,,"inconclusive: 1 µM [activator, full curve, poor fit]"
Nc1nc(-c2ccccn2)c(-c2ccc3ncccc3n2)s1,,"inconclusive: 14.1 µM [activator, partial curve, poor fit]"
CC1CCCC(C)N1C(=O)COc1ccc(-c2nnco2)cc1 (centres undefined),inactive: 11.6%,
O=C(COC(=O)c1cc(S(=O)(=O)N2CCc3ccccc3C2)ccc1Cl)NCc1ccco1,,"inconclusive: 7.3 µM [activator, partial curve, poor fit]"
O=C(NCCSCc1ccccc1)c1ccc(C2SCC(=O)N2Cc2ccccc2)cc1 (centres undefined),,"inconclusive: 25.9 µM [inhibitor, partial curve, poor fit]"
Cc1ccccc1Cn1c(C)c(CNCCCc2ccccc2)c(C(=O)O)c1C,,"inconclusive: 1.41 µM [inhibitor, partial curve, poor fit]"
CCN(CC)CC(O)COc1ccc2c(c1)c(C(C)=O)c(C)n2-c1ccccc1 (centres undefined),,"inconclusive: 18.3 µM [inhibitor, single point]"
COc1cc(NC(=S)N2CCC(C(O)(c3ccccc3)c3ccccc3)CC2)cc(OC)c1,,"inconclusive: 29.1 µM [inhibitor, single point]"
CCn1nnc(-c2ccccc2NC(=O)C(F)(F)F)n1,inactive: 18.6%,
CCOc1ccccc1NC(=O)C1CCCCN1S(=O)(=O)c1ccccc1 (centres undefined),,"inconclusive: 14.1 µM [inhibitor, single point]"
N=c1c2c(-c3ccccc3)c(-c3ccccc3)n(Cc3ccccc3)c2ncn1CCO,,"inconclusive: 22.4 µM [inhibitor, single point]"
COc1ccc(S(=O)(=O)N2CCN(CC(=O)Nc3cc(OC)cc(OC)c3)CC2)cc1,,"inconclusive: 14.1 µM [inhibitor, single point]"
O=C(Nc1ccccc1)C(=O)Nc1cccnc1,,"inconclusive: 3.98 µM [inhibitor, partial curve]"

Compound,"activity change, negative = inhibition",Potency
Cc1ccc(-c2noc(-c3cccs3)n2)cc1,inactive: -25.2%,
Cc1nc2cc3nc(C)sc3cc2s1,inactive: 19.3%,
CNc1nc(-c2ccc3c(c2)CCN3C(=O)c2ccccc2C)cs1,,"inconclusive: 35.5 µM [inhibitor, single point]"
Cc1cccc(Cn2c(CN3CCCC(C)C3)nc3c2c(=O)n(C)c(=O)n3C)c1 (centres undefined),inactive: 13.6% [at 46.1 µM],
O=C(NC(Cc1ccccc1)C(=O)N1CCCCC1)c1ccccc1 (centres undefined),,"inconclusive: 12.6 µM [activator, single point]"
Cc1nn2cc(-c3ccc(N)cc3)nc2s1,,"inconclusive: 18.3 µM [inhibitor, single point]"
O=C(CCCCl)NC(=S)Nc1ccc(N2CCOCC2)cc1,,"inconclusive: 2.24 µM [activator, full curve]"
O=C(CC(c1ccccc1)c1ccccc1O)NCCc1ccccc1 (centres undefined),,"inconclusive: 0.447 µM [inhibitor, full curve, poor fit]"
CCOC(=O)c1c(-c2ccc(F)cc2)csc1NC(=O)CCN1C(=O)c2ccccc2C1=O,inactive: -24.7%,
COc1ccc(CC(=O)c2ccc(OC)c(OC)c2C)cc1OC,,"inconclusive: 11.2 µM [inhibitor, partial curve]"
O=S(=O)(c1ccc(NC(=S)NC2CC2)cc1)N1CCOCC1,inactive: -11.5%,
COc1ccc(NC(=O)C(c2cc3c(cc2[N+](=O)[O-])OCO3)N(C)C)cc1 (centres undefined),,"inconclusive: 0.891 µM [inhibitor, single point]"
Cc1nc(CSc2ccc(Cl)cc2)cc(N2CCOCC2)n1,inactive: 21.4%,
Cc1ccc(S(=O)(=O)N2CCc3cc(C(=O)Nc4c(C)cccc4C(C)C)ccc32)cc1,inactive: -12.2% [at 46.1 µM],
Cc1ccsc1C(=O)C1CCCN(Cc2ccccc2O)C1 (centres undefined),inactive: -17.5%,
O=C(Nc1ccccc1C(F)(F)F)c1cc2ncc(CCCl)cn2n1,,"inconclusive: 31.6 µM [activator, single point]"
Cc1ccccc1NC(=O)CCn1nc(-c2ccc(Cl)cc2)c2ccccc2c1=O,,"inconclusive: 17.8 µM [inhibitor, single point]"
COc1ccc(-n2nc(C(=O)NCC(=O)N3CCCCCC3)c3ccccc3c2=O)cc1OC,inactive: -15.4%,
CCOC(=O)c1ccc(NC(=S)N(CCCN2CCCC(C)C2)Cc2cccs2)cc1 (centres undefined),,"inconclusive: 17.8 µM [inhibitor, partial curve, poor fit]"
Cc1cc(C)nc(NC(=O)/C=C/c2ccc(Cl)cc2Cl)c1,inactive: -32.3%,
CCN(CC)CCN(C(=O)c1ccc2ccccc2c1)c1nc2cc3c(cc2s1)OCO3,,"inconclusive: 1.78 µM [activator, partial curve, poor fit]"
Cc1ccc(C(=O)Nc2ccc3c(c2)OCO3)cc1S(=O)(=O)N1CCOCC1,inactive: 2.45%,
CCOC(=O)c1c(NC(=O)c2cc(C)oc2C)sc(C(=O)Nc2ccc(Cl)cc2)c1C,,"inconclusive: 12.6 µM [activator, single point]"

Compound,"activity change, negative = inhibition",Potency
Cc1ccc(NC(=O)CNC(=O)c2ccco2)cc1Cl,,"inconclusive: 35.5 µM [activator, single point]"
CCOC(=O)c1c(NC(=O)C2(C)Cc3ccccc3C(=O)O2)sc2c1CCCC2 (centres undefined),inactive: -9.46%,
COC(=O)COc1cccc(NC(=O)COc2ccccc2)c1,inactive: -3.92%,
C/C=C/C=C/C(=O)Nc1nccs1,,"inconclusive: 11.2 µM [activator, partial curve, poor fit]"
CC1=C(C(=O)OC2CCCCCC2)C(c2ccc(Cl)cc2Cl)CC(=O)N1 (centres undefined),inactive: -17.7% [at 46.1 µM],
CC(C)NS(=O)(=O)c1ccc(Oc2ncc(C(F)(F)F)cc2Cl)cc1,,"inconclusive: 23.1 µM [inhibitor, single point]"
CCOC(=O)N1CCc2cc(OC)c(OC)c3c2c1cc1cc(OC)c(OC)cc13,,"inconclusive: 5.62 µM [inhibitor, full curve, poor fit]"
Cc1ccc(C(C)C)c(OCc2nn(CC(=O)c3ccc(Cl)cc3)c3[n+]2CCCCC3)c1,,"inconclusive: 35.5 µM [inhibitor, partial curve, poor fit]"
CC1Cc2cc(S(=O)(=O)NCc3ccccc3)ccc2N1C(=O)C1CCC1 (centres undefined),,"inconclusive: 8.91 µM [inhibitor, partial curve, poor fit] and inconclusive: 1.78 µM [inhibitor, partial curve, poor fit]"
O=C(CN(Cc1ccco1)C(=O)Cn1nnc(-c2ccc(F)cc2)n1)NC1CCCC1,inactive: -9.76%,
Cc1ccc(Cl)cc1NC(=O)Cn1c(SCC(=O)NCc2ccccc2)nc2ccccc21,,"inconclusive: 1.78 µM [inhibitor, partial curve, poor fit]"
CCc1nonc1NC(=O)c1oc2ccc(Cl)cc2c1C,,"inconclusive: 10 µM [activator, partial curve, poor fit]"
COCCNC(=S)N/N=C/c1ccc(N2CCOCC2)cc1,,"inconclusive: 23.1 µM [inhibitor, single point]"
CN1CCN(NC(=O)c2cccc3ccccc23)CC1,inactive: -14.2%,
O=[N+]([O-])c1ccccc1C1Nc2cccc3cccc(c23)N1,,"inconclusive: 6.31 µM [inhibitor, single point]"
O=C(NCc1ccccc1)c1nc(-c2ccc(Cl)cc2)n2c1CCCCC2,,"inconclusive: 7.94 µM [inhibitor, partial curve]"
Cc1ccc(C(=O)Nc2ncc(C)s2)o1,,"inconclusive: 2.06 µM [inhibitor, single point]"
CCC(C)c1c(O)nc(SCC(=O)N2CCCCCC2)[nH]c1=O (centres undefined),,"inconclusive: 3.55 µM [inhibitor, single point]"
CCNC(=S)N/N=C/c1ccc(C#N)cc1,,"inconclusive: 25.1 µM [inhibitor, single point]"
O=C(NCc1ccco1)C1c2ccccc2Oc2ccccc21,inactive: 4.71%,
CN(C)S(=O)(=O)c1ccc(Nc2ccc(-c3ccc4c(c3)OCCO4)nn2)cc1,inactive: 2.67%,
CCCCSc1nc(-c2cccc(OC)c2)nc2c1Cc1c(CO)cnc(C)c1O2,,"inconclusive: 14.1 µM [activator, partial curve, poor fit]"
Cc1ccc(NC(=O)C2CC(=O)N(c3ccc4c(c3)OCCO4)C2)cc1S(=O)(=O)N1CCCCCC1 (centres undefined),,"inconclusive: 12.6 µM [inhibitor, partial curve, poor fit]"
